# System: human recombinant Cb5R with a His6-tag
# Assay: FRET between FAD of His6-tagged Cb5R and Aβ(1–42) HiLyte-Fluor555
# Assay type: binding
# Conditions: random orientation
# Method: The assay buffer was 20 mM phosphate/0.1 mM diethylenetriaminepentaacetic acid (pH 7).
substance,measurement,setting,value
Aβ(1–42) HiLyte^TM-Fluor555: Human Aβ(1–42) with HiLyte-Fluor555 dye covalently bound to ASP1; AnaSpec,distance FAD to HiLyte-Fluor555,1 acceptor per donor,2.35 nm
same,distance FAD to HiLyte-Fluor555,2 equidistant acceptors per donor,3.1 nm
